Reference: PMC7555290
These are yes or no findings as the source states them, for the method shown. For some assays here: Binding seen in cells or lysates may run through a third protein. Some binding calls cover weakened binding; strength is not graded here.

Chains of the proteins cited; added tags and fusions are not shown.
UniProt Q07820: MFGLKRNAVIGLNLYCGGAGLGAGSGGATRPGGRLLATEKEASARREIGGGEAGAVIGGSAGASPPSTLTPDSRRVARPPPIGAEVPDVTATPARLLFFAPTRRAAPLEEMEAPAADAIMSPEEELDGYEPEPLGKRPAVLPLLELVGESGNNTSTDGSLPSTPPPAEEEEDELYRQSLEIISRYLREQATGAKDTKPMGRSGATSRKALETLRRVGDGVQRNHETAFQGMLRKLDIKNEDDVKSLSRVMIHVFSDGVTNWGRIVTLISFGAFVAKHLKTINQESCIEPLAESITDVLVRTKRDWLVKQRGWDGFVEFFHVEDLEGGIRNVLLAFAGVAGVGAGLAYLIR
UniProt Q12834: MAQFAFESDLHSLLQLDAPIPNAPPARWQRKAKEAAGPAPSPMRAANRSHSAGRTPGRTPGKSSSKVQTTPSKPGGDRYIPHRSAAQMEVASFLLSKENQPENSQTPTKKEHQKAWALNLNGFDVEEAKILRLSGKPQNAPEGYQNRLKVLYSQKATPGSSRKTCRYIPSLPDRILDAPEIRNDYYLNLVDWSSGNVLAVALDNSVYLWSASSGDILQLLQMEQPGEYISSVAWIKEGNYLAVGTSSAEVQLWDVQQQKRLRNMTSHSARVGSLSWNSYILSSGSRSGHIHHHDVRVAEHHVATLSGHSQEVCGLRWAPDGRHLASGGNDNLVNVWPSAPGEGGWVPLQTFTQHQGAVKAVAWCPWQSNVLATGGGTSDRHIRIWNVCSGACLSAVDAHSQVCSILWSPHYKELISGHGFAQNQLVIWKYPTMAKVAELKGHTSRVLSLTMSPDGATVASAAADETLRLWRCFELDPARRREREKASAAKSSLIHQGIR

Assays:
[1] = biological target: Mcl-1, endogenous (human (endogenous in HCT116)) (UniProt Q07820); test: co-IP; endogenous proteins in HCT116 total cell lysate (RIPA lysis buffer with protease inhibitors); primary antibody 12 h at 4 °C, Protein G Sepharose; Western blot
[2] = biological target: Flag-Mcl-1 (UniProt Q07820); test: pull-down; purified Flag-Mcl-1 immobilized on anti-Flag M2 beads incubated with purified GST-CDC20; bead-bound proteins blotted with anti-CDC20 antibody; both purified

Row | Substance | binding [1] | binding [2]
1 | Cell division cycle 20 (CDC20), endogenous (from UniProt Q12834 1-499) | binds | –
2 | GST-CDC20 (from UniProt Q12834 1-499) | – | binds
